Results from patent US7825226B2, “Glycoprotein synthesis” (The Scripps Research Institute, priority 2002, dated 2010).
Some results were stated once for a whole list of compounds, not compound by compound. For part of these data: At least one structure is not confirmed: it was looked up by name or label, or the drawing left a doubt.

Experiments:
[1] = tested on: suppression of the Asp112TAG amber codon in the chloramphenicol acetyltransferase (CAT) gene; format: cell-based, E. coli; conditions: 1 mM amino acid replacing Compound B; clones S1-90, S4-5, S1-5
[2] = tested on: E. coli strain deficient in lysine biosynthesis; test: uptake of unnatural amino acids as Unn-Lys and Lys-Unn dipeptides, growth on lysine minimal media; format: cell-based; conditions: dipeptide with lysine as only source of lysine

| Compound | chloramphenicol concentration above which cell growth is not permitted [1] [µg/mL] | dipeptide concentration at which growth was observed [2] [mM] |
| --- | --- | --- |
| CC(=O)N[C@H]1[C@@H](O[C@H](C)[C@H](N)C(=O)O)O[C@H](COC(C)=O)[C@H](OC(C)=O)[C@@H]1OC(C)=O [α-tri-acetyl-GalNAc-threonine] | ≤ 30 |  |
| α/β-tri-acetyl-GalNAc-serine | ≤ 30 |  |
| N[C@@H](Cc1ccc(OP(=O)(O)O)cc1)C(=O)O [phosphonotyrosine] |  | ≥ 10 |
| N[C@@H](CO)C(=O)O [serine] | ≤ 30 |  |
| O=C(O)[C@@](F)(N(F)c1ccccc1)C(F)(F)F [pentafluorophenylalanine] |  | ≥ 10 |
| N[C@@H](COP(=O)(O)O)C(=O)O [phosphonoserine] |  | ≥ 10 |
